Reference: PMC12732654, “Thermodynamic Profiling Reveals DNA Polymerase Template Binding, Substrate Incorporation, and Exonuclease Function”
Construct, isoform or probe ends are uncertain for at least one entry. The comparison behind a weaker result is the experiment's own reference, which may not be listed here. At least one verdict rests on a figure or table, not on a statement of the authors. Protein sequences can lack the tags named with them.

Target: T1, SS_01 (engineered Phi29 DNA polymerase) M97K,A484E,K512Y (UniProt P03680)
T1 sequence (looked up, limits assumed): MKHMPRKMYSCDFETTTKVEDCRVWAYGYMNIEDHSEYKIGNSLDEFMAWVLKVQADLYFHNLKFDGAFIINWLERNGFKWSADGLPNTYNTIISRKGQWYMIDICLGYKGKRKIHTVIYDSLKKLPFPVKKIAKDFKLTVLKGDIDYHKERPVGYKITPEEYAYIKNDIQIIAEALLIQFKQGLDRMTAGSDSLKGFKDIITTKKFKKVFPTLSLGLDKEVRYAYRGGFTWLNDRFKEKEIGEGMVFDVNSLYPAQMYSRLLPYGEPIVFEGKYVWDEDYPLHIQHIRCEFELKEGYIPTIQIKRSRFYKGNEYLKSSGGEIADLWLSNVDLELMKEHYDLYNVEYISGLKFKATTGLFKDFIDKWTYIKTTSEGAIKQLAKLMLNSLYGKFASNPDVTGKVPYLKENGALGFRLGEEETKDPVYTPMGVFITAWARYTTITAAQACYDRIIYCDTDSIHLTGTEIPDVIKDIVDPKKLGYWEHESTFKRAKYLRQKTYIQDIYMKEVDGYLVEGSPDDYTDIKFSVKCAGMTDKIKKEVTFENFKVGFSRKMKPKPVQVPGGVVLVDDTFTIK
Experiment: EMSA
Conditions: EMSA: 20 mM HEPES pH 7.5, 4 mM DTT, 1 mM metal chloride, 30 C 30 min, 100 nM DNA, 10 nM polymerase, recombinant protein, folded or branched DNA

Measured: binding result

TTTTTGCGCTCGAGATCTCCGTAAGGAGATCTCGAGCGCGGGACTACTACTGGGATCATCATAGCCACCTCAGCTGCACGTAAGTGCAGCTGAGGTGGC [Seq99A hairpin primed template]
binds more weakly: 1 mM Ca2+ | 1 mM Sr2+ | no divalent metal
